# Experimental data as given in PubChem BioAssay AID256 (DTP/NCI, 2004).
# The list shows only some results of the screen, not a fair sample: it is rich in T/C values a quarter to a half above the control, in often repeated tests (any T/C) and in doses without a T/C. Further doses and runs are listed elsewhere. T/C: endpoint of the treated group in % of that of the vehicle group. Some doses have a count of surviving animals in place of a T/C: the source files T/C as zero there, which appears to mark a toxic dose or a test without result, not a measured value. Some doses without a T/C left all or most animals alive at the check, yet need not have been tolerated: the source hardly ever lists a survival T/C far under the control, and the zero likely stands for such cases as well. Counts of survivors are from the toxicity check (mostly the fifth day) where no day follows; animals may have died later. Schedule codes are those of the source, read here as Q, the interval in days (D) or hours (H), X, the number of doses. For survival time, this PubChem deposit counts one and a half times the control or more as active, and values a quarter to a half above the control carry no call in these data; other NCI protocols may use other cut-offs. Some entries were tested several times; the results are listed from low to high.
# Test system: CD2F1 mice, L1210 leukemia ip, survival T/C
# Assay: NCI In Vivo Anticancer Drug Screen. Data for tumor model L1210 Leukemia (intraperitoneal) in CD2F1 (CDF1) mice
# Details: higher T/C = longer survival
# Summary of the method: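 Antitumor effect is scored in animals hosting a serially transplanted tumor. Values compare compound-dosed animals against vehicle-only controls as a simple quotient.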
# [1] = T/C endpoint: mean survival time, dose: 200.0 mg/kg/injection, schedule: Q01DX009 (ip), vehicle: saline with Tween-80
# [2] = T/C endpoint: mean survival time, dose: 100.0 mg/kg/injection, schedule: Q04DX002 (ip), vehicle: saline with Tween-80
# [3] = T/C endpoint: mean survival time, dose: 200.0 mg/kg/injection, schedule: Q04DX002 (ip), vehicle: saline with Tween-80
# [4] = T/C endpoint: mean survival time, dose: 100.0 mg/kg/injection, schedule: Q01DX009 (ip), vehicle: saline with Tween-80
# [5] = T/C endpoint: mean survival time, dose: 400.0 mg/kg/injection, schedule: Q01DX009 (ip), vehicle: saline with Tween-80
smiles,measurement,setting,value
CCCCNc1c(C(=O)N2CCCCC2)cnc2c1cnn2CC,survivor count,"T/C endpoint: mean survival time, dose: 400.0 mg/kg/injection, schedule: Q04DX003 (ip), vehicle: saline",0 of 3
C[C@H](N)C(=O)N[C@@H]1[C@H]2C(=C(O)C[C@@H](O)[C@@H]2O)C(=O)O[C@@H]1C,T/C,"T/C endpoint: mean survival time, dose: 400.0 mg/kg/injection, schedule: Q01DX007 (ip), vehicle: saline",135 % of control
same,T/C,"T/C endpoint: mean survival time, dose: 400.0 mg/kg/injection, schedule: Q01DX009 (ip), vehicle: saline",131 % of control
same,T/C,"T/C endpoint: median survival time, dose: 300.0 mg/kg/injection, schedule: Q01DX009 (ip), vehicle: saline",128 % of control
same,T/C,"T/C endpoint: median survival time, dose: 600.0 mg/kg/injection, schedule: Q01DX009 (ip), vehicle: saline",140 and 149 % of control
same,survivor count,"T/C endpoint: median survival time, dose: 2400.0 mg/kg/injection, schedule: Q01DX009 (ip), vehicle: saline",4 of 10
COC1CCC(/C=C(\C#N)C2CCC(C)CC2)CC1 (stereo unspecified),survivor count,[1],3 of 3
CCc1ccc(C)[nH]c1=S,survivor count,"T/C endpoint: mean survival time, dose: 400.0 mg/kg/injection, schedule: Q01DX001 (ip), vehicle: saline with Tween-80",3 of 6
CO[C@@H]1C2=CC=CC=C[C@H]2n2c(=O)n(C)c(=O)n21,survivor count,"T/C endpoint: median survival time, dose: 300.0 mg/kg/injection, schedule: Q01DX005 (ip), vehicle: other",3 of 6
same,survivor count,"T/C endpoint: median survival time, dose: 600.0 mg/kg/injection, schedule: Q01DX005 (ip), vehicle: other",0 of 6
C[N+](C)(C)/N=C/c1ccc(Cl)cc1,survivor count,[2],0 of 3
same,survivor count,[3],0 of 3
C=CCn1c(NCCN(CC)CC)nc2cc([N+](=O)[O-])ccc2c1=O,survivor count,[4],0 of 6
same,survivor count,[1],0 of 6
same,survivor count,[5],0 of 6
CC12C(=O)OC(=O)C1(C)C1CCC2O1 (stereo unspecified),survivor count,"T/C endpoint: mean survival time, dose: 3.13 mg/kg/injection, schedule: Q04DX002 (ip), vehicle: saline with Tween-80",2 of 3
same,survivor count,"T/C endpoint: mean survival time, dose: 6.25 mg/kg/injection, schedule: Q04DX002 (ip), vehicle: saline with Tween-80",0 of 3
same,survivor count,"T/C endpoint: mean survival time, dose: 25.0 mg/kg/injection, schedule: Q04DX002 (ip), vehicle: saline with Tween-80",0 of 3
same,survivor count,"T/C endpoint: mean survival time, dose: 50.0 mg/kg/injection, schedule: Q04DX002 (ip), vehicle: saline with Tween-80",0 of 3
same,survivor count,[2],0 of 3
C[N+](C)(CC(=O)Nc1cc(C(F)(F)F)cc(C(F)(F)F)c1)CC(=O)Nc1ccc(Cl)c(C(F)(F)F)c1,survivor count,[4],1 of 6
same,survivor count,[2],2 of 3
same,survivor count,[1],0 of 6
same,survivor count,[3],0 of 3
same,survivor count,[5],0 of 6
same,survivor count,"T/C endpoint: mean survival time, dose: 400.0 mg/kg/injection, schedule: Q04DX002 (ip), vehicle: saline with Tween-80",0 of 3
CC(C)(C)OC(=O)NC(Cc1ccc(OCc2ccccc2)cc1)C(=O)O (stereo unspecified),survivor count,"T/C endpoint: mean survival time, dose: 400.0 mg/kg/injection, schedule: Q04DX003 (ip), vehicle: saline with Tween-80",4 of 6
O=C(O)c1cccc2c1-c1ccccc1C(Br)C2Br (stereo unspecified),survivor count,"T/C endpoint: mean survival time, dose: 200.0 mg/kg/injection, schedule: Q01DX005 (ip), vehicle: saline with Tween-80",0 of 3
O=C(CCl)Nc1ncc([N+](=O)[O-])s1,survivor count,"T/C endpoint: mean survival time, dose: 100.0 mg/kg/injection, schedule: Q04DX003 (ip), vehicle: acetone",3 of 6
same,survivor count,"T/C endpoint: mean survival time, dose: 200.0 mg/kg/injection, schedule: Q04DX003 (ip), vehicle: acetone",0 of 6
same,survivor count,"T/C endpoint: mean survival time, dose: 400.0 mg/kg/injection, schedule: Q04DX003 (ip), vehicle: acetone",0 of 6
